Common to all, as to assay: co-IP
The target in assay [1] is SMAD7-HA (UniProt O15105).
Assay [2] deals with SMAD7, endogenous in mouse liver (mouse (endogenous in Prom1+/+ liver)) (UniProt O35253).
Assay [3] has as its target SMAD7-HA (UniProt O15105). This is another data set of the same source.

Chains of the proteins cited; added tags and fusions are not shown.
UniProt O15105, whole entry: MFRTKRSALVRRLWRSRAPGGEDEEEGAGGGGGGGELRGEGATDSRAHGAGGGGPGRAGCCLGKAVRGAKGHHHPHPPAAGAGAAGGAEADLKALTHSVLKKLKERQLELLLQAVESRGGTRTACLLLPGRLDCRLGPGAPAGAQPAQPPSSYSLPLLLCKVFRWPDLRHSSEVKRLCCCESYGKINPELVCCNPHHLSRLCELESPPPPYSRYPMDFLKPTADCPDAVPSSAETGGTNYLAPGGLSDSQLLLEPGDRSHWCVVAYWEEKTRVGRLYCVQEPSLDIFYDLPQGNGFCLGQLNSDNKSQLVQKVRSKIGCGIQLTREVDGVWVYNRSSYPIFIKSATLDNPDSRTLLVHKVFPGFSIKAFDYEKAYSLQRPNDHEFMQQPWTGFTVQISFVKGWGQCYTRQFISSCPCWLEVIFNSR
UniProt O35253, whole entry: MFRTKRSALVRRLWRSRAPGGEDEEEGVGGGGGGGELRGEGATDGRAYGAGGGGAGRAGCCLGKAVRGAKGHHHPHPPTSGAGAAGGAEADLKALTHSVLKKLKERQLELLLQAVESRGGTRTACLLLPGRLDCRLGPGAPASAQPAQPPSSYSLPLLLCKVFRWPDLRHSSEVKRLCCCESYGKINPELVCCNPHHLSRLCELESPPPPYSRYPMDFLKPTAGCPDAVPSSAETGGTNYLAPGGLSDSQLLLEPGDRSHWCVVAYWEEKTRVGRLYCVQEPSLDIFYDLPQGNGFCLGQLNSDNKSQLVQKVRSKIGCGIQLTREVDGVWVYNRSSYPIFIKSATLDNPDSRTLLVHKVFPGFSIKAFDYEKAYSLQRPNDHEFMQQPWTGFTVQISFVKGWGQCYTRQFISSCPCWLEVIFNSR
UniProt Q9HAU4, whole entry: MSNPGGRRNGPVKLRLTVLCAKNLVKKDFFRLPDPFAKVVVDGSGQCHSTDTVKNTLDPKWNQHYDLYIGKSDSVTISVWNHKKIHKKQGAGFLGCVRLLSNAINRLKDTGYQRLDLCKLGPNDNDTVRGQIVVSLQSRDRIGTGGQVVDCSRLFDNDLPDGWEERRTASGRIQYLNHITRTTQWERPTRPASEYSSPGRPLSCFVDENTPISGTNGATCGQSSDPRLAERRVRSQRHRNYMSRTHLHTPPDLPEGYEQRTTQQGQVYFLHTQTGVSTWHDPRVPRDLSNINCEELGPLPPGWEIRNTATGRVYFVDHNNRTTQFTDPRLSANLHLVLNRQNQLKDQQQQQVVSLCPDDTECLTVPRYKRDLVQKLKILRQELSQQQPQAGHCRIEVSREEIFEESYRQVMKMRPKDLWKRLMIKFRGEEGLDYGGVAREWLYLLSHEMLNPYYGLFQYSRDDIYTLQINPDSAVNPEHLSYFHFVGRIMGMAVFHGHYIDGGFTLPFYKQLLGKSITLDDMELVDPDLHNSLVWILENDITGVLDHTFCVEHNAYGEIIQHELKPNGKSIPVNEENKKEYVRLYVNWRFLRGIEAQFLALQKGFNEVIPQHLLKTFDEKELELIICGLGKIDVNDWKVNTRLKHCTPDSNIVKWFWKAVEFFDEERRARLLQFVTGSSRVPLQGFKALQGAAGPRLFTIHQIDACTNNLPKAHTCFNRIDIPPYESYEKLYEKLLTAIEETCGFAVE

Among the data in article doi:10.1101/846493 are binding values, retold here.

Read-outs that look alike come from different tables or passages of the source. Results are given in words; binding and its absence hold for the method and conditions named. Binding seen in cells or lysates may run through a third protein. Some binding calls cover weakened binding; strength is not graded here. For part of these data: Tags and fused reporters may be left off the sequences shown.

On to “Myc-SMURF2 (from UniProt Q9HAU4 1-748) (enzyme)”, for which the binding result in assay [1] is “binds”.

B1: Prominin-1 (PROM1), endogenous in mouse liver (protein, UniProt O54990 20-867)
chain: EGQPAFHNTPGAMNYELPTTKYETQDTFNAGIVGPLYKMVHIFLSVVQPNDFPLDLIKKLIQNKKFDISVDSKEPEIIVLALKIALYEIGVLICAILGLLFIILMPLVGCFFCMCRCCNKCGGEMHQRQKQNAPCRRKCLGLSLLVICLLMSLGIIYGFVANQQTRTRIKGTQKLAKSNFRDFQTLLTETPKQIDYVVEQYTNTKNKAFSDLDGIGSVLGGRIKDQLKPKVTPVLEEIKAMATAIKQTKDALQNMSSSLKSLQDAATQLNTNLSSVRNSIENSLSSSDCTSDPASKICDSIRPSLSSLGSSLNSSQLPSVDRELNTVTEVDKTDLESLVKRGYTTIDEIPNTIQNQTVDVIKDVKNTLDSISSNIKDMSQSIPIEDMLLQVSHYLNNSNRYLNQELPKLEEYDSYWWLGGLIVCFLLTLIVTFFFLGLLCGVFGYDKHATPTRRGCVSNTGGIFLMAGVGFGFLFCWILMILVVLTFVVGANVEKLLCEPYENKKLLQVLDTPYLLKEQWQFYLSGMLFNNPDINMTFEQVYRDCKRGRGIYAAFQLENVVNVSDHFNIDQISENINTELENLNVNIDSIELLDNTGRKSLEDFAHSGIDTIDYSTYLKETEKSPTEVNLLTFASTLEAKANQLPEGKPKQAFLLDVQNIRAIHQHLLPPVQQSLNTLRQSVWTLQQTSNKLPEKVKKILASLDSVQHFLTNNVSLIVIGETKKFGKTILGYFEHYLHWVFYAITEKMTSCKPMATAMDSAVNGILCGYVADPLNLFWFGIGKATVLLLPAVIIAIKLAKYYRRMDSEDVYDDVETVPMKNLEIGSNGYHKDHLYGVHNPVMTSPSRY
Turning to B1, in assay [2], the binding entry is “binds”.

B2: PROM1-FLAG (protein, UniProt O43490 20-865)
chain: GGQPSSTDAPKAWNYELPATNYETQDSHKAGPIGILFELVHIFLYVVQPRDFPEDTLRKFLQKAYESKIDYDKPETVILGLKIVYYEAGIILCCVLGLLFIILMPLVGYFFCMCRCCNKCGGEMHQRQKENGPFLRKCFAISLLVICIIISIGIFYGFVANHQVRTRIKRSRKLADSNFKDLRTLLNETPEQIKYILAQYNTTKDKAFTDLNSINSVLGGGILDRLRPNIIPVLDEIKSMATAIKETKEALENMNSTLKSLHQQSTQLSSSLTSVKTSLRSSLNDPLCLVHPSSETCNSIRLSLSQLNSNPELRQLPPVDAELDNVNNVLRTDLDGLVQQGYQSLNDIPDRVQRQTTTVVAGIKRVLNSIGSDIDNVTQRLPIQDILSAFSVYVNNTESYIHRNLPTLEEYDSYWWLGGLVICSLLTLIVIFYYLGLLCGVCGYDRHATPTTRGCVSNTGGVFLMVGVGLSFLFCWILMIIVVLTFVFGANVEKLICEPYTSKELFRVLDTPYLLNEDWEYYLSGKLFNKSKMKLTFEQVYSDCKKNRGTYGTLHLQNSFNISEHLNINEHTGSISSELESLKVNLNIFLLGAAGRKNLQDFAACGIDRMNYDSYLAQTGKSPAGVNLLSFAYDLEAKANSLPPGNLRNSLKRDAQTIKTIHQQRVLPIEQSLSTLYQSVKILQRTGNGLLERVTRILASLDFAQNFITNNTSSVIIEETKKYGRTIIGYFEHYLQWIEFSISEKVASCKPVATALDTAVDVFLCSYIIDPLNLFWFGIGKATVFLLPALIFAVKLAKYYRRMDSEDVYDDVETIPMKNMENGNNGYHKDHVYGIHNPVMTSPSQH
Regarding B2, in assay [3], the binding entry was “binds”.
